Construct, isoform or probe ends are uncertain for at least one entry. At least one result comes from cells or an extract, where the contact may be indirect. The comparison behind a weaker result is the experiment's own reference, which may not be listed here. At least one verdict rests on a figure or table, not on a statement of the authors.

For this data set, the target named is T1, L-selectin (cell surface, Jurkat T lymphocytes) (Homo sapiens?) (UniProt P14151).
T1 sequence: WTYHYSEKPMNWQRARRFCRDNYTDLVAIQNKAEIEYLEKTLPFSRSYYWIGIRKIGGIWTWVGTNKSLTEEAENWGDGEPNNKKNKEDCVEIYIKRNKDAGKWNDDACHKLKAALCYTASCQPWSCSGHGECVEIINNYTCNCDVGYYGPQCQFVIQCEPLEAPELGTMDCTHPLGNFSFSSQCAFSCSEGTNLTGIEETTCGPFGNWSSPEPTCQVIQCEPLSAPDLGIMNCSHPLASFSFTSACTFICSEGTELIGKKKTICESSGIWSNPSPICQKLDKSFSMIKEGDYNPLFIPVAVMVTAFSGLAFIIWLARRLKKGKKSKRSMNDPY
Kind of data set: competition (flow cytometry). The following applies: Jurkat cells, competition with 100 nM FITC-DREG56 for 35 min at 4°C, washed in PBS, 2% PFA fix, SLeX assay in PBS with 1% human serum albumin, protein on the cell surface, single-stranded DNA.

With “TAGCCAAGGTAACCAGTACAAGGTGCTAAACGTAATGGCTTCGGCTTAC [LS-Aptamer (monovalent)]”, the binding result (100 nM, vs FITC-SLeX (50 ug/ml)) was “binds more weakly”.

For the sequence “AGAGGCTACAGCGATAAGTCGACATTGCTGACCGTACCTAGTAATACGT [SC-Aptamer (monovalent scrambled)]”, the binding result reads like this: (100 nM, vs FITC-SLeX, much less inhibition than LS-Multi-Aptamer) “binds more weakly”; (vs 100 nM FITC-DREG56, LS-Multi-Aptamer out-competed at lower concentrations than this) “binds more weakly”.

For the origin of these results see paper PMC4380364.
